From PubChem BioAssay AID2551 (National Center for Advancing Translational Sciences (NCATS), 2010)
Out of some 310,000 compounds screened, about 17,000 (5.5%) were called active. Inconclusive results, whose numbers are uncertain, are shown with a selection of clear calls. The call rests on the fitted dose curve; in most records, active means well fitted inhibition curve with a large enough effect; inconclusive means small, poorly fitted or top-dose-only effect, or effect the other way; inactive means no such curve, though single readings can be large or run the other way. Potencies of inconclusive entries are doubtful fits and often do not repeat.

Protein sequences, listed by entry. Tags and fused reporters are not part of them. Lines headed by an entry give the natural chain unless they say otherwise; changes in a name come on top.
UniProt P51450: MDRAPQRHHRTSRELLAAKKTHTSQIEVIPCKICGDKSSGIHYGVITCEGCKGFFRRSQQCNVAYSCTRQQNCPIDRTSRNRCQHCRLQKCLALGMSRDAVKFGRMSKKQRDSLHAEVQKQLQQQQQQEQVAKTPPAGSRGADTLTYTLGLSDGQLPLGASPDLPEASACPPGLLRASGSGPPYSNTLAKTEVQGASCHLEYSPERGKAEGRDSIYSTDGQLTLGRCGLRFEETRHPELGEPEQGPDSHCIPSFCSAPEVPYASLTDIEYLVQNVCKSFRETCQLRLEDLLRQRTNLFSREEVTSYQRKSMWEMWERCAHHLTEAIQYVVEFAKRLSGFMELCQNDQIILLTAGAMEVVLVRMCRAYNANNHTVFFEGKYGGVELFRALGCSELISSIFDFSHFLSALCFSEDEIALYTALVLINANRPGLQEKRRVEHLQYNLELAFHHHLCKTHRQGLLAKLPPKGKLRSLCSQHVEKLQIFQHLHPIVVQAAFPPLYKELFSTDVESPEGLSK

target: Nuclear receptor ROR-gamma (Mus musculus) (UniProt P51450); assay: qHTS for inhibitors of ROR gamma transcriptional activity; conditions: Drosophila S2 Gal4-RORgamma UAS-luciferase reporter, 20 h; activity change, negative = inhibition: at 53.6 µM (top of the series); further: nearly all actives have a fitted effect of over 60% in size
Procedure, shortened: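 Schneider cells (Drosophila), stable Gal4 DBD–ROR gamma + UAS-luc; 1 hr cmpd preincubation; Cu2+ induction 700 uM final; 20 hr ambient; luminescence.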
On the % scale 0 is the no-effect control and ±100 the full control effect; potency means the concentration at half of the fitted maximal effect.

| SMILES | Potency | activity change, negative = inhibition |
| --- | --- | --- |
| CC(C)n1c(-c2ccc(N(C)C)cc2)nc2ccccc21 | active: 3.98 µM |  |
| CCOc1ccc(/C=C2\NC(=S)NC2=O)cc1 | inconclusive: 35.5 µM [inhibitor, single point] |  |
| O=C1CCCCN1CC(=O)N1CCCC(Nc2ccc(F)c(F)c2)C1 (configuration not stated) |  | inactive: 13.1% |
| O=c1[nH]c(CSc2ccccn2)nc2ccccc12 | inconclusive: 12.6 µM [inhibitor, single point] |  |
| CSc1ccc(/C=C(\C#N)C(=O)NC2CCCCC2C)cc1 (configuration not stated) | inconclusive: 15.8 µM [inhibitor, single point] |  |
| CCCCC(CC(O)COCCC)c1n[nH]c(=S)n1-c1ccccc1 (configuration not stated) | active: 11.2 µM |  |
| Cc1ccc(-n2c(C)cc(C(=O)CSc3nncs3)c2C)cc1 |  | inactive: -4.32% |
| O=C(c1cc(-c2ccc(F)cc2)on1)N1CCOCC1 | inconclusive: 11.2 µM [inhibitor, partial curve, poor fit] |  |
| O=c1[nH][nH]c(-c2ccccc2)c1C=Nc1ccc(OC(F)(F)F)cc1 | inconclusive: 1.58 µM [inhibitor, partial curve] |  |
| COc1ccc(CN(CCCN2CCOCC2)S(=O)(=O)N(C)C)cc1OC |  | inactive: -14.6% |
| CC(=O)c1ccccc1OCC(O)CN1CCN(c2ccccn2)CC1 (configuration not stated) | inconclusive: 4.47 µM [inhibitor, single point] |  |
| COc1ccc(C2/C=C\CN(C(=O)c3ccc(C)cc3)[C@H](Cc3ccccc3)C(=O)N2Cc2ccc(F)cc2)cc1 (some centres not stated) | inconclusive: 3.55 µM [inhibitor, full curve, poor fit] |  |
| CCN(CC)C(=O)c1[nH]cnc1C(=O)N[C@@H](Cc1ccccc1)C(=O)OCc1ccccc1 | active: 14.1 µM |  |
| COC(=O)c1ccc(/C=N\n2c(C)nnc2C)cc1 | inconclusive: 35.5 µM [inhibitor, single point] |  |
| O=C(Nc1ccccc1)Nc1ccc2snnc2c1 | inconclusive: 28.2 µM [activator, single point] |  |
| O=C(Cn1cnc2c(nnn2-c2cccc(Cl)c2)c1=O)N1CCOCC1 |  | inactive: -5.62% |
| Cc1ccc(-c2nc3ncccn3c2Nc2ccc3c(c2)OCCO3)o1 | inconclusive: 0.251 µM [activator, full curve] |  |
| Cc1ccc(-c2onc3ccc(C(=O)/C=C/N(C)C)cc23)cc1 |  | inactive: 14.7% |
| CCS(=O)(=O)c1ncc(Cl)c(C(=O)Nc2ccc(S(=O)(=O)N3CCC(C)CC3)cc2)n1 | active: 3.16 µM |  |
| Cc1ccc(-n2c(C)cc(/C=c3/sc4nc5ccccc5n4c3=O)c2C)cc1 | inconclusive: 0.0631 µM [inhibitor, full curve, poor fit] |  |
| CCN(c1ccccc1)S(=O)(=O)c1ccc(NC(=S)NC(=O)c2cccs2)cc1 | active: 3.16 µM |  |
| N#CCC(=O)Nc1ccc(C(=O)N2CCN(c3ccccn3)CC2)cc1 |  | inactive: 8.37% |
| OCCOC[C@H]1O[C@H](OCCO)[C@H](OCCO)[C@@H](OCCO)[C@@H]1OCCO (tested in a mixture with another compound) |  | inactive: 7.91% |
| C=CCNCC(=O)N1N=C(c2ccc3ccccc3c2)CC1c1ccc(OC)cc1 (configuration not stated) |  | inactive: -1.2% |

Quoted from the listing:
Potency with `O=C(Nc1ccccc1)Nc1ccc2snnc2c1` is entered as inconclusive: 28.2 µM [activator, single point]
Potency with `CC(C)n1c(-c2ccc(N(C)C)cc2)nc2ccccc21` is entered as active: 3.98 µM
Potency with `CCOc1ccc(/C=C2\NC(=S)NC2=O)cc1` is entered as inconclusive: 35.5 µM [inhibitor, single point]

(continued)

| SMILES | Potency | activity change, negative = inhibition |
| --- | --- | --- |
| O=C(c1ccccc1)N1CCN(C(=O)c2cc3nc(-c4ccccc4)cc(C(F)(F)F)n3n2)CC1 | inconclusive: 2.82 µM [activator, full curve] |  |
| Cn1c(CSc2nc3ccccc3s2)n[nH]c1=S | inconclusive: 7.08 µM [inhibitor, full curve, poor fit] |  |
| O=c1oc2ccccc2c(O)c1/C=N/c1ncccn1 |  | inactive: 4.84% |
| Cc1ccccc1/[N+]([O-])=C/c1cccs1 |  | inactive: -3.26% |
| CCn1c(SCC(=O)N2CCC(C(N)=O)(N3CCCCC3)CC2)nnc1-c1ccccc1 | inconclusive: 35.5 µM [activator, single point] |  |
| COc1ccc(C(=O)NC(=S)N2CCOCC2)cc1[N+](=O)[O-] | active: 2.24 µM |  |
| COc1ccc(S(=O)(=O)NCc2ccccn2)c(C)c1C | inconclusive: 15.8 µM [inhibitor, single point] |  |
| C=CCNC(=S)Nc1ccc(N(C)C)cc1 | active: 11.2 µM |  |
| Cc1ccc(C(=O)NC(=S)Nc2cccc3c(C)cc(C)nc23)cc1 | active: 1 µM |  |
| O=C(c1cc(=O)c2ccccc2o1)N1CCN(c2ccccc2F)CC1 | inconclusive: 14.1 µM [activator, partial curve] |  |
| CCN(CC)S(=O)(=O)c1ccc(NC(=O)Nc2cccc(C(F)(F)F)c2)cc1 | inconclusive: 35.5 µM [inhibitor, single point] |  |
| COc1cccc(Cn2c(C3CC3)nc3ccc(NC(=O)c4ccco4)cc3c2=O)c1 | inconclusive: 10 µM [activator, partial curve] |  |
| CCOC(=O)N/N=C/c1ccc(OCCSc2ccc(Cl)cc2)c(OCC)c1 | inconclusive: 3.55 µM [activator, single point] |  |
| O=C(NNc1ncc(C(F)(F)F)cc1Cl)c1c(Cl)cccc1Cl | active: 0.891 µM |  |
| CC(=O)Nc1ccc(S(=O)(=O)N2CCN(c3nc4ccccc4n3CC(C)C)CC2)cc1 | inconclusive: 3.16 µM [activator, partial curve, poor fit] |  |
| CCc1ccc(-c2cc3c(=O)n(CC(=O)NCCCN4CCN(C)CC4)ncn3n2)cc1 | inconclusive: 22.4 µM [inhibitor, single point] |  |
| COc1ccccc1CNc1ncnc2sccc12 | inconclusive: 1.26 µM [activator, single point] |  |
| Cc1cccc(NC(=O)CSc2nnnn2-c2ccc3c(c2)OCCO3)n1 |  | inactive: -1.7% |
| Cc1c(Br)c([N+](=O)[O-])nn1CCCC(=O)Nc1sc2c(c1C(N)=O)CCC(C)C2 (configuration not stated) | inconclusive: 22.4 µM [activator, single point] |  |
| COc1ccc(C(O)C2=CCCC2=O)cc1 (configuration not stated) | inactive |  |
| Cc1ccc(C)c(CN2CCCN(C(=O)Cn3ncc4c3-c3ccccc3OC4)C2)c1 |  | inactive: -18.9% |
| COc1cc(-n2c(N)c(C(=O)NCc3ccco3)c3nc4ccccc4nc32)cc(OC)c1OC | inconclusive: 28.2 µM [activator, single point] |  |
| CC1(C)CC(Nc2ccc(Nc3ccccc3)cc2)CC(C)(C)N1 | inconclusive: 15.8 µM [inhibitor, partial curve, poor fit] |  |
| COCCNC(=O)CN(C)S(=O)(=O)c1ccc2c(c1)OCCO2 | inconclusive: 3.98 µM [activator, partial curve, poor fit] |  |

| SMILES | Potency | activity change, negative = inhibition |
| --- | --- | --- |
| Cc1cccc(OCc2nnc(SCC(=O)Nc3ncc(C)s3)o2)c1 | inconclusive: 10 µM [inhibitor, partial curve] |  |
| COc1c2ccoc2nc2c(OC)cccc12 |  | inactive: -20.2% |
| CCn1c(=O)cc(SCC(=O)NCc2cccnc2)c2ccccc21 |  | inactive: -36.5% |
| O=C(Nc1ccc2c(c1)OCO2)c1ccc(Br)s1 | inconclusive: 2 µM [activator, full curve] |  |
| COc1ccc(C2CC(c3ccc(OC)cc3O)=NN2C(=O)c2ccccc2)cc1 (configuration not stated) |  | inactive: -1.37% |
| C[C@H](NC(=O)c1nc[nH]c1C(=O)N[C@@H](CCCCNC(=O)OC(C)(C)C)C(=O)OC(C)(C)C)C(=O)OC(C)(C)C | inconclusive: 14.1 µM [inhibitor, single point] |  |
| Cc1occc1C(=O)N/N=C/c1ccccn1 | active: 10 µM |  |
| O=C(Nc1ccc(Oc2ccc(S(=O)(=O)N3CCOCC3)cn2)cc1)c1ccco1 | inconclusive: 11.2 µM [inhibitor, single point] |  |
| COc1cc(CN2CCN(c3ccccc3F)CC2)c([N+](=O)[O-])cc1OC |  | inactive: -12.6% |
| CC(=O)Nc1ccc(S(=O)(=O)N2CCC(c3nnc(-c4ccc(C)cc4)o3)CC2)cc1 | active: 14.1 µM |  |
| COc1ccc(OC)c(NC(=O)CSc2ncnc3c2cnn3-c2ccccc2Cl)c1 | inconclusive: 0.501 µM [activator, single point] |  |
| CCOC(=O)c1ccc2[nH]c3c(c2c1)CCCCC3=O | inconclusive: 20 µM [activator, partial curve, poor fit] |  |
| Cc1cccc(Oc2nc(CN3CCOCC3)nc3sc4c(c23)CCCC4)c1 | active: 11.2 µM |  |
| Cc1ccc(S(=O)(=O)OCCc2ccccc2)cc1 |  | inactive: 2.5% |
| c1ccc(-c2nc(CSc3nnnn3-c3ccccc3)cs2)cc1 | inconclusive: 15.8 µM [activator, single point] |  |
| COc1cc2c(c(OC)c1OC)C(c1ccc(O)cc1)CC(=O)O2 (configuration not stated) | inconclusive: 14.1 µM [inhibitor, partial curve] |  |
| Cc1ccc(-c2cc(C(=O)N3CCOCC3)no2)cc1 | active: 7.94 µM |  |
| CC1C(=O)N(c2ccc(S(=O)(=O)N(C)C)cc2)C1(/C=C/c1ccccc1)C(=O)NC1CCCC1 (configuration not stated) |  | inactive: 18% |
| c1ccc2c(c1)OC(CCCN1CCCCC1)c1ccccc1S2 (configuration not stated) | inconclusive: 0.631 µM [inhibitor, full curve, poor fit] |  |
| Cc1ccc(S(=O)(=O)Nc2cc(C)cn(Cc3ccccc3)c2=O)cc1 | inconclusive: 35.5 µM [inhibitor, single point] |  |
| CCc1ccc2[nH]c(=O)c(CN(Cc3ccccc3)Cc3nnnn3Cc3ccco3)cc2c1 |  | inactive: -10.1% [at 0.365 µM] |
| COc1ccc(C(=O)c2sc3nc(C)cc(-c4cccs4)c3c2N)cc1OC | inconclusive: 22.4 µM [inhibitor, single point] |  |
| CC1(C)Cc2c(cnn2-c2ccc(F)cc2)C(NC(=O)CCN2CCCCO2)C1 (configuration not stated) | inconclusive: 11.2 µM [activator, single point] |  |
| O=C(c1cc2c(ccc3ccccc32)oc1=O)N1CCN(CCO)CC1 | inconclusive: 7.94 µM [inhibitor, partial curve, poor fit] |  |
